Results on one molecule are retold here after patent US5514561A, “Fluorogenic and chromogenic β-lactamase substrates” (priority 1994, dated 1996).

This data set relates to β-lactamase. The experiment in a line: Colorimetric reaction with β-lactamase in the presence of coupling reagents. The class given is biochemical.

SMILES strings stand for the structures.

Turning to `CO/N=C(\C(=O)N[C@@H]1C(=O)N2C(C(=O)O)=C(COC(=O)Nc3c[nH]c4ccccc34)CS[C@H]12)c1csc(N)n1` [cefotaxime indole carbamate, Cefotaxime Indole Carbamate], the “Product Color” value was “Green soln./ppt” (coupling reagent 2-Methoxy-4-morpholino benzene diazonium Cl, saturated solution in water); “Blue soln./ppt” (coupling reagent Fast Blue BB salt, saturated solution in water); “Red solution” (coupling reagent Fast Red TR salt, saturated solution in water); “Orange soln./ppt” (coupling reagent Fast Red Violet LB salt, saturated solution in water); “Dark ppt” (coupling reagent Nitroblue tetrazolium in water).
